Measurements taken from PMC4841774 (eLife, 2016).

Amino acid sequences for entries named in this document (tags omitted). Residues count along the entry.
UniProt Q13330, residues 162-715: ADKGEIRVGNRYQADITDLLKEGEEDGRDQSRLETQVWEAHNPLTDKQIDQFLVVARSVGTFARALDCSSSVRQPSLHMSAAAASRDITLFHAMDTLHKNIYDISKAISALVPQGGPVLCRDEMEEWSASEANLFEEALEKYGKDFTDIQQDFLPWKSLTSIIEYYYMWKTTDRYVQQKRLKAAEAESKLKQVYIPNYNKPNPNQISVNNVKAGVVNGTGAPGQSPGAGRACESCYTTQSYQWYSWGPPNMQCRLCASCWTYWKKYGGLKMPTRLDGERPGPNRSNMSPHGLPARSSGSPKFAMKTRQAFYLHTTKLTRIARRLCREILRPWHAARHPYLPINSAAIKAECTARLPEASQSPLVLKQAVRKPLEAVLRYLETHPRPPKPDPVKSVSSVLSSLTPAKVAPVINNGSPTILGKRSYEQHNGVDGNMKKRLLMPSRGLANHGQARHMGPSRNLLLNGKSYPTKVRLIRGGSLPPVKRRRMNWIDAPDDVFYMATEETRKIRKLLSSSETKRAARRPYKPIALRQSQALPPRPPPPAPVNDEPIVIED
UniProt Q13547: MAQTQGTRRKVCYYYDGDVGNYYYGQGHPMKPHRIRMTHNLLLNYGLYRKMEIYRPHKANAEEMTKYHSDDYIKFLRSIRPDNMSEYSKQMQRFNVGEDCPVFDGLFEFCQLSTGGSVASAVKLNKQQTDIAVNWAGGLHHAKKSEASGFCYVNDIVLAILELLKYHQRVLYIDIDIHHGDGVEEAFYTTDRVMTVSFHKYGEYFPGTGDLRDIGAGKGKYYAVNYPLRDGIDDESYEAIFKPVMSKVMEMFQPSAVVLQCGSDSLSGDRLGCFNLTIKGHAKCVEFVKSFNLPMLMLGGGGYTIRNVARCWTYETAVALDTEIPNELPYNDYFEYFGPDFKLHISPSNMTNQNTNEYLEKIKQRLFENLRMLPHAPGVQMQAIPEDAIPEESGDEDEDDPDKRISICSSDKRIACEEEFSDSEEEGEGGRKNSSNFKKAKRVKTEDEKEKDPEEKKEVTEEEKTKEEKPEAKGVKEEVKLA

Molecular target: MTA1-C (residues 162–715) (human) (UniProt Q13330)
Assay: affinity purification with mass spectrometry; Flag-tagged MTA1 fragments co-transfected with HDAC1 in HEK293F; complexes purified on FLAG resin; endogenous RBBP4/7 identified by peptide mass spectrometry; ratio by densitometry of the SDS-PAGE gel (ImageJ)

binding: binds
Substance: HDAC1 (residues 1–482), untagged (from UniProt Q13547 1-482) (enzyme)

No constants are given. Whether binding was seen depends on the method and setting. Binding seen in cells or lysates may run through a third protein. Here binding means that the protein was enriched with, or labelled near, the bait; the list need not be complete.
